# Experimental data taken from PubChem BioAssay AID493014 (National Center for Advancing Translational Sciences (NCATS), 2011).
# Screen size: about 340,000 compounds; about 170 (0.05%) were called active. The shares of active, inactive and inconclusive entries below differ from those in the screen. Calls follow the shape of the dose curve; as a rule, active = well fitted inhibition curve with a large enough effect in the signal ratio, with a control signal flat (not every such curve was filed as active); inconclusive = small, poorly fitted or top-dose-only effect, or effect the other way, or a change in a side signal; inactive = flat fitted curve, though single readings scatter; the % refers to the signal ratio. Potencies beside an inconclusive call are fits to weak or partial responses and may not hold up.
# Assay: qHTS Assay to Find Inhibitors of Chronic Active B-Cell Receptor Signaling;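 as to activity change, negative = inhibition: plate controls were basal doxycycline-induced cells for no effect and cells given 10 µM MG132 for full effect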
# Conditions: ABC-DLBCL IkBa-CBG/CBR reporter, luminescence ratio (green luciferase fused to IkBa over red control in TMD8 lymphoma cells), 4 h; activity change, negative = inhibition: at 46.1 µM (top of the series)
# Procedure, shortened: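 Compounds up to 46 uM were incubated four hours with TMD8 cells whose green CBG68 luciferase is fused to IkappaBalpha; red CBR luminescence normalised the signal, and concentration-effect curves were fitted to fusion, red and ratio data.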
# Potency is read from the fitted curve at half-maximal effect.
SMILES,"activity change, negative = inhibition",Potency
Cn1nc(C(=O)N2CCN(c3ccc([N+](=O)[O-])cc3)CC2)c2c1-c1ccccc1S(=O)(=O)C2,inactive,–
O=C1C=C(NCc2ccc(Cl)c(Cl)c2)C2(CCCCC2)O1,inactive,–
CCN(CC)S(=O)(=O)c1cccc(NC(=O)COc2ccc(F)cc2Br)c1,–,"inconclusive: 15.8 µM [falling, single point]"
O=C(CCCn1c(SCc2cccc(F)c2)nc2ccccc2c1=O)NCC1CCCO1 (stereo not drawn),–,"inconclusive: 1.41 µM [falling, partial curve, poor fit]"
CCOC(=O)c1cc(-c2ccc(OC)cc2)n(CCC(=O)NCCc2ccccc2)c1C,inactive,–
Cc1ccccc1N(C)S(=O)(=O)c1nnc(NC(=O)c2ccco2)s1,inactive,–
CCC1CCCCN1C(=O)COC(=O)c1cc(=O)[nH]c2ccccc12 (stereo not drawn),inconclusive: 0.67%,–
Cc1cccc(NC(=O)CNC(=O)c2cccc(-n3cccc3)c2)c1C,inactive,–
Nc1[nH]n2c(=O)cc(-c3ccccc3)nc2c1N=Nc1ccc2c(c1)OCO2,inconclusive: 381%,–
CCOc1ccc(NC(=O)c2ccco2)cc1,–,"inconclusive: 23.1 µM [falling, single point]"
CCC1=C/C(=C/c2sc3ccccc3[n+]2CC)CC(C)(C)C1,–,"inconclusive: 25.1 µM [falling, partial curve]"
COc1ccc(Cl)cc1NC(=O)C/C(C)=N/NC(=O)CCc1ccccc1,inconclusive: 0.377%,–
O=C(CN1CCOCCOCCOCCOCC1)Nc1ccccc1,–,"inconclusive: 18.4 µM [falling, single point]"
COc1cc(NC(=O)CSc2c3c(nc4ccccc24)CCC3)cc(OC)c1OC,inconclusive: -24%,–
Cc1c(C(=O)NCc2cccnc2)sc2nc(-c3ccc(F)cc3)cn12,–,"inconclusive: 29.1 µM [falling, single point]"
Cc1nc(Cc2nnc(SC(C)C(=O)N3c4ccccc4NC(=O)C3(C)C)o2)cs1 (stereo not drawn),inconclusive: 1.43%,–
Cc1cccc2c(N=Nc3ccc(S(=O)(=O)Nc4ccc(Cl)cc4)cc3[N+](=O)[O-])c(O)[nH]c12,inconclusive: 5.52%,–
CCCn1c(=O)c(C(=O)Nc2ccccc2)c(O)c2ccccc21,inactive,–
COC(=O)C(C)N(C(=O)c1ccc(Cl)cc1)c1c(C)cccc1C (stereo not drawn),inconclusive: 20.4%,–
CC1c2[nH]c3ccccc3c2C[C@H]2C(=O)N(CCO)CC(=O)N12 (stereo partly drawn),inconclusive: -0.488%,–
COc1cc(C(=O)Nc2ccncc2)c([N+](=O)[O-])cc1OC,inconclusive: 11.2%,–
COc1cc(/C=N/NC(=O)CSc2cc(C)c(Br)cc2C)ccc1O,–,"inconclusive: 20.6 µM [falling, partial curve, poor fit]"
O=C(CN1CCN(c2ccccn2)CC1)Nc1ccc(F)cc1F,–,"inconclusive: 10 µM [falling, partial curve]"
CCCCC(=O)Nc1nc2ccc(C(=O)OC)cc2s1,–,"inconclusive: 25.1 µM [falling, partial curve]"
O=C1CSC(=NC2CCCCC2)N1,–,"inconclusive: 9.2 µM [falling, partial curve]"
Cc1cc(C)c2c(N)c(C(=O)NCc3ccco3)sc2n1,–,"inconclusive: 20.6 µM [falling, partial curve]"

# As a short view, part of the list above.
SMILES,"activity change, negative = inhibition",Potency
CC1c2[nH]c3ccccc3c2C[C@H]2C(=O)N(CCO)CC(=O)N12 (stereo partly drawn),inconclusive: -0.488%,–
COc1cc(C(=O)Nc2ccncc2)c([N+](=O)[O-])cc1OC,inconclusive: 11.2%,–
COc1cc(/C=N/NC(=O)CSc2cc(C)c(Br)cc2C)ccc1O,–,"inconclusive: 20.6 µM [falling, partial curve, poor fit]"
O=C(CN1CCN(c2ccccn2)CC1)Nc1ccc(F)cc1F,–,"inconclusive: 10 µM [falling, partial curve]"

# (continued)

SMILES,"activity change, negative = inhibition",Potency
CC1CCN(Cc2nc(-c3ccccc3)no2)CC1,inconclusive: 0.765%,–
O=C(O)CC/C(=N/NC(=O)CNC(=O)Cc1ccc(Cl)cc1)c1ccccc1,inconclusive: -29.6%,–
CCc1n[nH]c(=S)n1/N=C/C(C)=C\c1ccccc1,inconclusive: -0.0725%,–
Cc1ccc(S(=O)(=O)/N=C(\Sc2ccccc2)c2ccccc2)cc1,inactive,–
COc1ccc(C(=O)N2CCN(c3ccc(NC(=O)Cc4ccccc4)cc3)CC2)cc1,inconclusive: -1.04%,–
COc1ccc2c(=O)c3c(=O)n(Cc4ccco4)c(-c4ccco4)nc3oc2c1,–,"inconclusive: 6.51 µM [falling, single point]"
Cn1c(N)c(C(=O)COC(=O)/C=C/c2cccc(Br)c2)c(=O)n(C)c1=O,inactive,–
CCOc1ccc(/C=C2\SC(=S)N(CC(=O)Nc3ccccn3)C2=O)cc1,inactive,–
COc1ccc(OC)c(NS(=O)(=O)c2ccc(NC(=O)C3COc4ccccc4O3)cc2)c1 (stereo not drawn),inactive,–
CCOc1ccc(NC(=O)c2c(NC(=O)CN3CCN(C)CC3)sc3c2CCC3)cc1,inactive,–
COc1ccc(NC(=O)COC(=O)CNS(=O)(=O)c2ccccc2)cc1OC,inactive,–
O=C(Nc1sc2c(c1C(=O)NCc1cccnc1)CCCC2)c1ccco1,inconclusive: 27.1%,–
O=C(CNC(=O)c1ccccc1Cl)N/N=C/c1ccc([N+](=O)[O-])s1,inconclusive: -15.1%,–
CC(=O)c1ccc(-n2ccc(=O)cc2)cc1,inactive,–
O=C(N/N=C/c1c(O)n(Cc2ccccc2)c(=O)c2ccccc12)c1cccnc1,–,"inconclusive: 15.8 µM [falling, single point]"
COC(=O)CCC(=O)NNC(=O)c1ccc([N+](=O)[O-])cc1,inconclusive: 64.7%,–
COc1ccc(NC(=O)c2sccc2OS(=O)(=O)N(C)C)cc1,inconclusive: -5.21%,–
CN1C(=O)/C(=C/c2ccccc2Cl)Sc2ccc(C(=O)N3CCCC3)cc21,inconclusive: 0.731%,–
Cc1cc(N2CCCCC2)nc(SCC(=O)c2ccccc2)n1,inconclusive: -1.15%,–
Cc1[nH]n(-c2ccccc2)c(=O)c1CCO,inactive,–
Cc1nn(-c2ccccc2)c2nc(C(Cl)(Cl)Cl)[nH]c(=O)c12,–,"inconclusive: 17.8 µM [rising, partial curve, poor fit]"
O=C(C1=C(O)C(=O)N(CC2CCCO2)C1c1ccc(Cl)cc1Cl)c1ccco1 (stereo not drawn),inactive,–
O=C(Nc1cccc(S(=O)(=O)N2CCCCC2)c1)C1CCCC1,inconclusive: -3.01%,–
CC(C)(C)CC(=O)Nc1nnc(-c2cccs2)s1,inconclusive: 2.1%,–
CCN(CC)S(=O)(=O)c1cc(-c2nnc(-c3ccc(Br)cc3)o2)ccc1Br,inconclusive: 13.3%,–
COC(C[C@H](O)C[C@@H](O)[C@H](C)OCc1ccccc1)OC,inactive,–

SMILES,"activity change, negative = inhibition",Potency
Cc1nc2scc(-c3ccc(Cl)cc3)c2c(=O)o1,–,"inconclusive: 3.26 µM [rising, partial curve, poor fit]"
CS(=O)(=O)N1N=C(c2ccco2)CC1c1ccccc1Cl (stereo not drawn),inconclusive: 8.9%,–
O=C(CSc1nc2ncc(Cl)cc2[nH]1)NCCc1ccc(F)cc1,inconclusive: 7.97%,–
CSc1ccccc1NC(=O)Cc1ccc(Br)cc1,inconclusive: -11.5%,–
CCn1c(NC(=O)c2ccc(COc3ccc(C)cc3[N+](=O)[O-])o2)nc2ccccc21,inactive,–
C/C(=N\Nc1cccc(C(=O)O)c1)c1ccc(Cl)s1,–,"inconclusive: 0.316 µM [falling, full curve, poor fit]"
O=C(Nc1ccc(Cl)cc1)N1CCCN(Cc2ccccc2F)C1,–,"inconclusive: 8.2 µM [rising, partial curve, poor fit]"
C/C(=N\NC(=S)Nc1ccccc1C)c1ccc(O)cc1,–,"inconclusive: 28.2 µM [cytotoxic, single point]"
O=C(NCc1cccc(Cl)c1)c1ccc(-c2csnn2)cc1,–,"inconclusive: 10 µM [falling, partial curve, poor fit]"
C#CCOCCOCCOCCNc1nc(N2CCN(C(=O)CCCCCCCCCCNC(=O)[C@H](CCCCN)n3cc(CCO)nn3)CC2)nc(N2CCN(C(=O)CCCCCCCCCCNC(=O)[C@H](CCCCN)n3cc(C[C@@H](C)CC)nn3)CC2)n1,inconclusive: 2.57%,–
Cc1ccc(-c2cc(C(=O)N/N=C/c3c(C)nn(C)c3C)c3ccccc3n2)cc1C,inconclusive: 6.99%,–
O=C(NN1CCOCC1)c1cc(-c2cccc(Cl)c2)nc2ccccc12,inconclusive: 8.27%,–
COc1cc(/C=C(/C(=O)c2cccs2)c2nc3ccccc3[nH]2)ccc1O,inconclusive: -8.04%,–
Cc1ccc(Cn2ccc(NC(=O)c3cc(C)on3)n2)cc1,inconclusive: -1.69%,–
O=C(Oc1c(-c2ccccc2)c(=O)n2c3c(cccc13)CC2)c1cccc([N+](=O)[O-])c1,inconclusive: -3.64%,–
O=S(=O)(NC1CC1)c1ccc(S(=O)(=O)N2CCCC3(CCCCC3)C2)cc1,inconclusive: 19.3%,–
CCCCCCN(C(=O)CCCCCN1C(=O)NC(c2cccc([N+](=O)[O-])c2)C(C(=O)OCc2ccccc2)=C1C)C(C(=O)NCCCC)c1ccc(OCC(=O)OC)c(C(=O)OC)c1 (stereo not drawn),inconclusive: -29.8%,–
COc1ccccc1NC1=CC(=O)CC(c2ccccc2)C1 (stereo not drawn),–,"inconclusive: 23.1 µM [falling, single point]"
N#CC1(NC(=O)CSc2nnc(Nc3ccccc3F)s2)CCCC1,inconclusive: 4.19%,–
COc1cc(NC(=O)CSc2nc3nc(C)c(Cc4ccccc4Cl)c(C)n3n2)cc(OC)c1,inactive,–
COc1cccc(Oc2coc3c(CN4CCOCC4)c(O)ccc3c2=O)c1,inconclusive: -4.3%,–
Cc1cc(N2CCN(C(=O)/C=C/C(=O)O)CC2)c2ccccc2n1,inactive,–
COc1ccc(NC(=O)/C(Cl)=C(/Cl)S(=O)(=O)Cc2ccc(C)cc2)cn1,–,"inconclusive: 6.51 µM [rising, full curve, poor fit]"
O=C(NC1CCCC1)c1ccc(CN2CCOCC2)cc1,inconclusive: -1.32%,–
CCOc1ccc(-c2nc(CSc3nnc(C)s3)cs2)cc1OC,–,"inconclusive: 0.517 µM [falling, full curve, poor fit]"
Cc1ccc(NC(=O)COc2cccc(/C=C3\SC(=S)N(CCC(=O)O)C3=O)c2)cc1Cl,–,"inconclusive: 20 µM [falling, partial curve, poor fit]"
